# Results as given in article PMC12669712.
# No constants are given. Whether binding was seen depends on the method and setting. Some results given as binding are weak or reduced against the parent protein; the word gives no strength.
# T1: Recombinant LATS1 (Active Motif, #81209) (human) (UniProt O95835)
# T1 sequence: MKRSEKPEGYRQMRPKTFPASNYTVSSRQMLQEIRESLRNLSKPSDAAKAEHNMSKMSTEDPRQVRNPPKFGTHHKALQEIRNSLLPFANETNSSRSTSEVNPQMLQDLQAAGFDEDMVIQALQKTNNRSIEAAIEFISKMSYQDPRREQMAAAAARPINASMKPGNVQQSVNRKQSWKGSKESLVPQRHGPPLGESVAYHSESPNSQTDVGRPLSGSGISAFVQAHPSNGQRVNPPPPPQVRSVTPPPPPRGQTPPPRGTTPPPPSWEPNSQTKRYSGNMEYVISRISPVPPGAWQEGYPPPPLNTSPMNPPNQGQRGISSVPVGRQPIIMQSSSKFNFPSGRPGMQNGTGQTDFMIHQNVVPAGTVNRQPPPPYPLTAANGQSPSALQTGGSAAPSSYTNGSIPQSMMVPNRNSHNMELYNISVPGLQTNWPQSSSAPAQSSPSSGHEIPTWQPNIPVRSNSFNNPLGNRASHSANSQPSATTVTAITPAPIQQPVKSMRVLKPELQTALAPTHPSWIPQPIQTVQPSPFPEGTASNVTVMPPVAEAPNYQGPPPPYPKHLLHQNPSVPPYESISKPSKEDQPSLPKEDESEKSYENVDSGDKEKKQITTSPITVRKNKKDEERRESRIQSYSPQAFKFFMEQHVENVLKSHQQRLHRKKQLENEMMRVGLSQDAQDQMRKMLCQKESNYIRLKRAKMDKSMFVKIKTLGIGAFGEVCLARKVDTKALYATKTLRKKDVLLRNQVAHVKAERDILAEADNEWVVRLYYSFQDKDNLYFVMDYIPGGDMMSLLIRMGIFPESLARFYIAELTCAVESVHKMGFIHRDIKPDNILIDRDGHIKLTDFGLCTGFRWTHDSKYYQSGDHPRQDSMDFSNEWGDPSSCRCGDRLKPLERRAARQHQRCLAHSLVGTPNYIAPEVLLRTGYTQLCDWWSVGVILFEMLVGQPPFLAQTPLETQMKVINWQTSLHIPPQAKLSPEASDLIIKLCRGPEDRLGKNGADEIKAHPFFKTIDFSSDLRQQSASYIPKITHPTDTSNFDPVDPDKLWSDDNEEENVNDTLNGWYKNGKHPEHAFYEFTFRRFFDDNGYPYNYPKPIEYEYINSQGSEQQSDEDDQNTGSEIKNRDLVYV
# Target: T1, Recombinant LATS1 (Active Motif, #81209) (human)
# Assay: mass photometry; Refeyn OneMP; proteins diluted in PBS to a final concentration of 20 nM; room temperature; both purified
binder,measurement,value
"Recombinant human KSR1 (Abcam, #ab268719) (protein, UniProt Q8IVT5 1-923) MDRAALRAAAMGEKKEGGGGGDAAAAEGGAGAAASRALQQCGQLQKLIDISIGSLRGLRTKCAVSNDLTQQEIRTLEAKLVRYICKQRQCKLSVAPGERTPELNSYPRFSDWLYTFNVRPEVVQEIPRDLTLDALLEMNEAKVKETLRRCGASGDECGRLQYALTCLRKVTGLGGEHKEDSSWSSLDARRESGSGPSTDTLSAASLPWPPGSSQLGRAGNSAQGPRSISVSALPASDSPTPSFSEGLSDTCIPLHASGRLTPRALHSFITPPTTPQLRRHTKLKPPRTPPPPSRKVFQLLPSFPTLTRSKSHESQLGNRIDDVSSMRFDLSHGSPQMVRRDIGLSVTHRFSTKSWLSQVCHVCQKSMIFGVKCKHCRLKCHNKCTKEAPACRISFLPLTRLRRTESVPSDINNPVDRAAEPHFGTLPKALTKKEHPPAMNHLDSSSNPSSTTSSTPSSPAPFPTSSNPSSATTPPNPSPGQRDSRFNFPAAYFIHHRQQFIFPVPSAGHCWKCLLIAESLKENAFNISAFAHAAPLPEAADGTRLDDQPKADVLEAHEAEAEEPEAGKSEAEDDEDEVDDLPSSRRPWRGPISRKASQTSVYLQEWDIPFEQVELGEPIGQGRWGRVHRGRWHGEVAIRLLEMDGHNQDHLKLFKKEVMNYRQTRHENVVLFMGACMNPPHLAIITSFCKGRTLHSFVRDPKTSLDINKTRQIAQEIIKGMGYLHAKGIVHKDLKSKNVFYDNGKVVITDFGLFGISGVVREGRRENQLKLSHDWLCYLAPEIVREMTPGKDEDQLPFSKAADVYAFGTVWYELQARDWPLKNQAAEASIWQIGSGEGMKRVLTSVSLGKEVSEILSACWAFDLQERPSFSLLMDMLEKLPKLNRRLSHPGHFWKSADINSSKVVPRFERFGLGVLESSNPKM",binding,binds
